The results in this text go back to paper doi:10.1101/2024.07.23.604836.

No constants are given. Whether binding was seen depends on the method and setting. Tags and fused reporters may be left off the sequences shown.

This assay deals with T1, Poliovirus receptor (PVR, CD155) on the surface of Mel526 cells (human (endogenous in Mel526)), P15151.
T1 chain: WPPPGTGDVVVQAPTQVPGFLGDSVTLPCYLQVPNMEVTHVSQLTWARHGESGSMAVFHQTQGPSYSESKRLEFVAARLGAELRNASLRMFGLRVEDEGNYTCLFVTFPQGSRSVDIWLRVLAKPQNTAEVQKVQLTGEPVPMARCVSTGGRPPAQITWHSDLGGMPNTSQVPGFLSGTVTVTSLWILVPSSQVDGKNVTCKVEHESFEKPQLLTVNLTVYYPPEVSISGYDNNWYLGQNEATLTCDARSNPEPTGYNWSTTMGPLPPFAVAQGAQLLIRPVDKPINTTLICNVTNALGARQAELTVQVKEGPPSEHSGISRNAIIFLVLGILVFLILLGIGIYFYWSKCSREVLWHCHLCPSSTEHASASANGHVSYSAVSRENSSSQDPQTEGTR
Nature of the assay: flow cytometry on cells. The note with it: remark: other sources report otherwise. (In flow cytometry, cells or beads pass a laser one at a time.)

B1: CD96-Fc (soluble, Fc-tagged ectodomain of CD96), P40200 22-519 (Fc fusion)
chain: VWEKTVNTEENVYATLGSDVNLTCQTQTVGFFVQMQWSKVTNKIDLIAVYHPQYGFYCAYGRPCESLVTFTETPENGSKWTLHLRNMSCSVSGRYECMLVLYPEGIQTKIYNLLIQTHVTADEWNSNHTIEIEINQTLEIPCFQNSSSKISSEFTYAWSVENSSTDSWVLLSKGIKEDNGTQETLISQNHLISNSTLLKDRVKLGTDYRLHLSPVQIFDDGRKFSCHIRVGPNKILRSSTTVKVFAKPEIPVIVENNSTDVLVERRFTCLLKNVFPKANITWFIDGSFLHDEKEGIYITNEERKGKDGFLELKSVLTRVHSNKPAQSDNLTIWCMALSPVPGNKVWNISSEKITFLLGSEISSTDPPLSVTESTLDTQPSPASSVSPARYPATSSVTLVDVSALRPNTTPQPSNSSMTTRGFNYPWTSSGTDTKKSVSRIPSETYSSSPSGAGSTLHDNVFTSTARAFSEVPTTANGSTKTNHVHITGIVVNKPKDGM
With B1, the binding result was “no binding (tested: 5 μg/mL)”.
